Laboratory results: PMC3166894
No constants are given. Whether binding was seen depends on the method and setting. Binding seen in cells or lysates may run through a third protein. Some entries that bind do so weakly or less than the wild type.

Sequences of proteins named here, by UniProt entry; tags and fusion partners are left off.
UniProt P35346: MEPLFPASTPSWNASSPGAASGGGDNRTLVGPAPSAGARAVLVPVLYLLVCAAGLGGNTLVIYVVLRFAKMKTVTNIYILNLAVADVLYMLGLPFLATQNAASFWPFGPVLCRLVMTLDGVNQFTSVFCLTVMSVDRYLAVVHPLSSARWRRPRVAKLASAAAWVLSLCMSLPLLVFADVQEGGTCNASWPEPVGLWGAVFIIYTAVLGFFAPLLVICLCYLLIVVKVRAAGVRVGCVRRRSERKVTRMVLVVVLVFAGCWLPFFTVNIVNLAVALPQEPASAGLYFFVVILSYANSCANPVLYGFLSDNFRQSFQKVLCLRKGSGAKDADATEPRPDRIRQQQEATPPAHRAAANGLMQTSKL

Legend:
[1] = molecular target: cMyc-tagged β2-adrenergic receptor (UniProt P07550); assay: FRET or BRET; photobleaching FRET with directly labeled HA- and cMyc- antibodies (data not shown); basal or combined agonists
[2] = molecular target: cMyc-tagged β2-adrenergic receptor (UniProt P07550); assay: co-IP; membrane protein (250 μg) of cotransfected HEK-293 cells solubilised in RIPA buffer; immunoprecipitated for cMyc-β2AR, blotted with anti-HA; control cells and cells treated with SST (1 μM) and formoterol (1 μM) alone or in combination, 30 min, 37°C

- binding [1]: binds
- binding [2]: binds
Substance: HA-tagged human somatostatin receptor 5 (from UniProt P35346 1-364)
